Literature values in US9884040B2, “Desethylamiodarone for use in cancer treatment” (PÉCSI TUDOMÁNYEGYETEM, priority 2015, dated 2018).

Conditions: after amiodarone in therapeutic doses; cited from earlier work

CCCCc1oc2ccccc2c1C(=O)c1cc(I)c(OCCN(CC)CC)c(I)c1 [amiodarone]
Concentration in patient plasma: 1600 to 5300 nM
